No constants are given. Whether binding was seen depends on the method and setting. In cells and extracts the contact can be indirect. Some results given as binding are weak or reduced against the parent protein; the word gives no strength.
Legend:
[1] = target: T1, Importin 13 (human (endogenous in human lung cancer cell lines and HBE)) (UniProt O94829); experiment: co-IP; lung cancer cell lysates; polyclonal anti-IPO13 antibody or rabbit IgG overnight at 4 °C, protein A/G agarose beads 6 h at 4 °C; blot with anti-RFPL3
T1 sequence: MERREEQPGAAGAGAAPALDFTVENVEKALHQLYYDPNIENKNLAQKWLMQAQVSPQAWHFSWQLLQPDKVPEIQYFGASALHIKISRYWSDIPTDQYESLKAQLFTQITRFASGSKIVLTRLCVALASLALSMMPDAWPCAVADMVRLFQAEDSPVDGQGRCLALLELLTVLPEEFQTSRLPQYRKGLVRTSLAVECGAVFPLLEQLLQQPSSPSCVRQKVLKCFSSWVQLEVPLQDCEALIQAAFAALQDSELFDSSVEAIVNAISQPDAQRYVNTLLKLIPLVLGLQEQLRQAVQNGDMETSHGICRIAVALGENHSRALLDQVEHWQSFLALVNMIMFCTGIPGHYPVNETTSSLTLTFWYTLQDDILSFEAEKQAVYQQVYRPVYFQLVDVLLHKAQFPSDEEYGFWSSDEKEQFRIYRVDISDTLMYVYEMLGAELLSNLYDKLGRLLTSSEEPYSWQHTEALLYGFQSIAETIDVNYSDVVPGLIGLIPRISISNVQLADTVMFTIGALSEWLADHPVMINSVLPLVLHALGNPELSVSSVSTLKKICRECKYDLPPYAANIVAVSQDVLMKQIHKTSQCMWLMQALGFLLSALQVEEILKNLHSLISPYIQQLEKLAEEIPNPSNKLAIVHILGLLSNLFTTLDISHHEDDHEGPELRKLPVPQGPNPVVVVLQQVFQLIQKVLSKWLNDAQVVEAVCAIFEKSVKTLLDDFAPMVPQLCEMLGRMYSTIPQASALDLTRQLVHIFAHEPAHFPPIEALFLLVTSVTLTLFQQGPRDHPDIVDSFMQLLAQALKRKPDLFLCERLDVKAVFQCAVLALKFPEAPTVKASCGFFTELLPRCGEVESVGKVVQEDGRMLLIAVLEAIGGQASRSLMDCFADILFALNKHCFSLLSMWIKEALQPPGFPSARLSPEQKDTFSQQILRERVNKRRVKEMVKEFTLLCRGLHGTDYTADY

Chains of the proteins cited; added tags and fusions are not shown.
UniProt O75679: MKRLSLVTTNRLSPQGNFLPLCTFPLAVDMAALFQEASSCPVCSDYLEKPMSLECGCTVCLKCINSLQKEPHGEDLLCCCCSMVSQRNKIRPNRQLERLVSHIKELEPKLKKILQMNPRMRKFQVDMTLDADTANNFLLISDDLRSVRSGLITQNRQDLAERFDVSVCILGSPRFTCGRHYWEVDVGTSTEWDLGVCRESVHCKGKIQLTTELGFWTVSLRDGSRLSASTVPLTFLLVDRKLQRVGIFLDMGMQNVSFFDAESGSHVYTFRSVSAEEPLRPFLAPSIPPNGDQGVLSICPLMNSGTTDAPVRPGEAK

[2] = target: T1, Importin 13 (human (endogenous in human lung cancer cell lines and HBE)); experiment: condition: only in HBE (normal lung epithelial cell) lysate; co-IP; HBE (normal lung epithelial cell) lysate; polyclonal anti-IPO13 antibody or rabbit IgG overnight at 4 °C, protein A/G agarose beads; blot with anti-RFPL3
[3] = target: T1, Importin 13 (human (endogenous in human lung cancer cell lines and HBE)); experiment: co-IP; cells transiently transfected with Flag-tagged RFPL3 or truncation mutants, lysed 48 h after transfection; precipitated with anti-IPO13 (endogenous IPO13) or rabbit IgG control; blot with anti-Flag

binding [1] | binding [2] | binding [3] | Substance
binds | no binding |  | RFPL3 (from UniProt O75679 1-317)
 |  | binds | full-length RFPL3-FLAG (1–317) (from UniProt O75679 1-317)

From article PMC7575581
